This assay in a line: qHTS Assay for Modulators of Lamin A Splicing. The following applies: HeLa LMNA splicing GFP/RFP minigene ratio, 48 h. The method in brief: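 S3 HeLa cells stably expressing lamin A-EGFP splicing minigene plus DsRed2, 600 cells/well, 48 h compound exposure at 37C. Laser-scanning cytometry; analysed as GFP (500-530 nm)/RFP (575-640 nm) total intensity ratio; 0.5% DMSO vehicle.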
In general terms: Quantitative high-throughput screening tests each substance at several concentrations.

Setting [1] is: measured here: RFP viability control channel.
Where [2] appears, read: measured here: GFP splicing reporter channel.

The other results are listed elsewhere or left out. These are further read-outs of the screen, such as a control signal, another cell line or another target. No call is given for them. Most of these compounds were active or inconclusive in the main read-out, so they are no random draw. Potencies come from curve fits of mixed quality, noted in brackets.

Turning to `O=C(Nc1nc2ccc(Cl)cc2s1)[C@@H]1CCCN1C(=O)c1cccs1`, under setting [1], the AC50 is 35.5 µM [rising, single point].

Turning to `O=C1CCC(/C=C/c2ccccc2)=NN1Cc1ccc(Cl)c(Cl)c1`, the AC50 under setting [1] was 31.6 µM [rising, single point].

Consider `CCN1/C(=C/c2cc[n+](C)cc2)C=Cc2cc(C)ccc21`, for which the AC50 is 2.51 µM [rising, full curve] under setting [2] and 2.82 µM [rising, full curve] under setting [1].

As for `COc1ccc(CCNC(=O)CSc2nnc(-c3ccc(F)cc3)o2)cc1OC`, the AC50 runs as follows: under setting [2], 7.08 µM [rising, partial curve]; under setting [1], 12.6 µM [rising, single point].

With `CC(C)(C)c1cc(=O)n2c(nc3ccccc32)[nH]1`, the AC50 reads like this: under setting [2], 14.1 µM [rising, partial curve]; under setting [1], 17.8 µM [rising, partial curve].

For the compound `Cc1oc2cc3c(C(=O)N4CCCCC4)c(C)oc3cc2c1C(=O)N1CCCCC1`, the AC50 under setting [1] is 5.01 µM [rising, partial curve, poor fit].

As to `Cc1ccc(-n2c(C)cc(C(=O)COc3c(CO)cc(F)cc3CO)c2C)cc1C`, the AC50 under setting [2] was 35.5 µM [rising, single point].

With `O=C(NCCc1csc(-c2ccc(C(F)(F)F)cc2)n1)C(=O)Nc1cc(F)ccc1F`, the AC50 under setting [1] is 2.51 µM [falling, partial curve, poor fit].

Turning to `COc1ccc(NC(=O)CCCn2c(=O)c3cccn3c3ccccc32)c(OC)c1`, the AC50 under setting [2] is 0.02 µM [rising, full curve, poor fit].

In the case of `CC(NCc1ccc(-c2ccccc2)cc1)C(O)c1ccccc1` (stereo unspecified), the AC50 under setting [1] is 8.91 µM [rising, partial curve, poor fit].

For `COc1ccc(-c2[nH]ncc2CNC(C)c2cn(C)nc2C)c(F)c1` (stereo unspecified), the AC50 under setting [2] is 0.447 µM [falling, single point].

Regarding `CCOC(=O)c1c(C)[nH]c(CCC(=O)NCCCN2CCN(c3cc(Cl)ccc3C)CC2)c1C`, the AC50 is, setting by setting: under setting [2], 11.2 µM [falling, partial curve, poor fit]; under setting [1], 11.2 µM [falling, partial curve].

`Cc1c(CCNC(=O)Cc2ccc(F)cc2)sc2nc(-c3ccc(F)cc3)nn12`: the AC50 under setting [2] was 0.0562 µM [falling, full curve] and the AC50 under setting [1] was 0.0447 µM [falling, partial curve, poor fit].

Regarding `O=C(/C=C/c1cccs1)N1CCN(Cc2ccc3c(c2)OCO3)CC1`, the AC50 under setting [2] was 14.1 µM [rising, single point].

Consider `CCOc1ccc(C(=O)Nc2cccc(OCc3cc(=O)n4ccccc4n3)c2)cc1`, for which, under setting [1], the AC50 is 6.31 µM [falling, single point].

Turning to `CCOC(=O)Cc1c(Cl)c2ccccc2[nH]c1=O`, the AC50 runs as follows: under setting [2], 35.5 µM [falling, partial curve]; under setting [1], 25.1 µM [falling, partial curve, poor fit].

For `COc1cc2c(cc1NC(=O)c1ccccc1F)CCCC2`, the AC50 under setting [2] is 25.1 µM [rising, single point] and the AC50 under setting [1] is 35.5 µM [rising, single point].

As for `COc1cc(CNn2c(C)n[nH]c2=S)cc(Cl)c1OCc1ccccc1`, the AC50 by setting is: under setting [2], 5.62 µM [falling, single point]; under setting [1], 5.62 µM [falling, single point].

Consider `CCCCNC(=O)c1onc(CCl)c1C(=O)OC`, for which the AC50 is 15.8 µM [falling, single point] under setting [2] and 25.1 µM [falling, single point] under setting [1].

As to `Cc1ccccc1NS(=O)(=O)c1nnc(NC(=O)c2ccc(Cl)cc2)s1`, the AC50 under setting [2] is 0.282 µM [falling, full curve, poor fit].

Take `Cc1ccc(C)c(C(=O)COc2ccc(C)nc2[N+](=O)[O-])c1`: the AC50 is, setting by setting: under setting [2], 35.5 µM [falling, single point]; under setting [1], 12.6 µM [falling, partial curve, poor fit].

For the compound `CCOC(=O)c1cccc(NC(=O)Cn2c(CC(=O)NC)nc3ccccc32)c1`, the concentration at half-maximal activity (AC50) by setting is: under setting [2], 12.6 µM [rising, partial curve, poor fit]; under setting [1], 35.5 µM [rising, single point].

For the compound `Cc1ccc(C(=O)C(OC(=O)c2c(C)cc(=O)oc2C)c2ccccc2)cc1` (stereo unspecified), the AC50 by setting is: under setting [2], 11.2 µM [rising, single point]; under setting [1], 11.2 µM [rising, single point].

As to `O=c1c2ccccc2nnn1CSc1ncnc2ccccc12`, the AC50 reads like this: under setting [2], 8.91 µM [falling, partial curve]; under setting [1], 22.4 µM [falling, partial curve].

For `O=C(O)c1ccccc1OC(=O)C12CC3CC(CC(C3)C1)C2`, the AC50 under setting [2] was 0.562 µM [falling, full curve, poor fit].

For the compound `O=C(NCc1cccnc1)c1cc(Sc2ccc(F)cc2F)nc2ccccc12`, the AC50 runs as follows: under setting [2], 25.1 µM [rising, single point]; under setting [1], 28.2 µM [rising, partial curve].

In the case of `Cc1ccc(C)n1-c1c(C(=O)NCC(C)c2ccccc2)sc2ncccc12` (stereo unspecified), the AC50 under setting [1] is 35.5 µM [rising, single point].

On to `COc1ccc(Br)cc1/C=C/C(=O)Nc1ccc(C)cc1`, for which, under setting [1], the AC50 was 17.8 µM [rising, partial curve].

As for `CCc1ccccc1N(C)C(=O)CCc1nc(-c2ccc(C)cc2)no1`, the AC50 under setting [1] is 17.8 µM [rising, single point].

As for `CCOc1ccc(CCNc2cc(C)nc3ncnn23)cc1OCC`, the AC50 under setting [1] is 14.1 µM [rising, partial curve].

Take `CCc1ccc(/C=C/C(=O)C2C(=O)c3ccccc3C2=O)cc1`: the AC50 is 22.4 µM [falling, single point] under setting [2] and 35.5 µM [falling, single point] under setting [1].

On to `COc1ccccc1C1C2=C(COC2=O)Nc2cc3c(cc21)OCO3` (stereo unspecified), for which the AC50 reads like this: under setting [2], 0.631 µM [falling, full curve]; under setting [1], 1.26 µM [falling, full curve].

With `O=C(Nc1ccc(C(F)(F)F)cc1)c1cc(S(=O)(=O)NC2CCCCC2)ccc1F`, the AC50 was 22.4 µM [falling, single point] under setting [2] and 22.4 µM [falling, partial curve] under setting [1].

For the compound `O=C(Cc1ccccc1)N1CCN=C1SCc1cccc([N+](=O)[O-])c1`, the AC50 is 0.891 µM [rising, full curve, poor fit] under setting [2] and 5.62 µM [rising, partial curve] under setting [1].

On to `Cc1cc(C)c(C#N)c(SCc2ccccc2C)n1`, for which the AC50 under setting [2] was 25.1 µM [rising, partial curve, poor fit] and the AC50 under setting [1] was 35.5 µM [rising, single point].

As to `O=C(Nc1ccccc1Cl)c1ccccc1Oc1ccc(C(F)(F)F)cc1[N+](=O)[O-]`, the AC50 by setting is: under setting [2], 0.0316 µM [falling, single point]; under setting [1], 0.0355 µM [falling, single point].

Consider `O=C(N/N=C/c1ccncc1)c1cccc(N/N=C/c2ccncc2)c1`, for which, under setting [1], the AC50 was 35.5 µM [rising, single point].

For the compound `CCOc1ccc(OCc2nnc(SCC(=O)NC3CCS(=O)(=O)C3)n2-c2ccc(Cl)cc2)cc1` (stereo unspecified), the AC50 under setting [2] is 20 µM [rising, single point].

`CC(=O)c1c(C)[nH]c(C(=O)OCCCCN2C(=O)c3ccccc3C2=O)c1C`: the AC50 under setting [2] was 0.355 µM [rising, full curve] and the half-maximal activity concentration (AC50) under setting [1] was 0.562 µM [rising, full curve].

`Cc1c(Br)c([N+](=O)[O-])nn1CC(=O)Nc1ccc(Cc2ccncc2)cc1`: the AC50 is, setting by setting: under setting [2], 7.94 µM [rising, partial curve]; under setting [1], 14.1 µM [rising, partial curve].

For `COc1ccc(-n2nnc3c(=O)n(CC(=O)N4CCCC4)cnc32)cc1`, under setting [1], the AC50 was 0.0251 µM [falling, partial curve, poor fit].

Regarding `O=c1c2c(-c3ccccc3)csc2ncn1/N=C/c1cccc([N+](=O)[O-])c1O`, the AC50 under setting [1] is 14.1 µM [rising, partial curve].

In the case of `O=C(CCCc1c[nH]c2ccccc12)N1CCN(S(=O)(=O)c2cccs2)CC1`, the AC50 by setting is: under setting [2], 11.2 µM [rising, single point]; under setting [1], 22.4 µM [rising, single point].

As to `O=C(CCC1CCCC1)N1CCc2c([nH]c3ccccc23)C1c1ccc(Cl)cc1` (stereo unspecified), the AC50 under setting [2] was 5.62 µM [falling, full curve, poor fit].

On to `CCOC(=O)n1ccn(C)c1=S`, for which the AC50 under setting [2] was 14.1 µM [falling, single point] and the AC50 under setting [1] is 8.91 µM [falling, single point].

On to `Nc1cc(N)nc(SCc2nnnn2-c2ccc(Cl)cc2)n1`, for which the AC50 is 22.4 µM [rising, single point] under setting [2] and 20 µM [rising, single point] under setting [1].

Consider `COc1cc(OC)nc(-n2ncc(Br)c(Br)c2=O)n1`, for which the AC50 runs as follows: under setting [2], 10 µM [rising, partial curve]; under setting [1], 15.8 µM [rising, partial curve].

Consider `COCCCNC(=O)c1ccc(Cn2c(=O)c3ccccc3n(CC(=O)NCCc3ccc(OC)c(OC)c3)c2=O)cc1`, for which the AC50 under setting [1] was 0.126 µM [falling, full curve].

With `CCOC(=O)CN1C(=O)C(Sc2n[nH]c(-c3cccc(C)c3)n2)CCc2ccccc21` (stereo unspecified), the AC50 under setting [2] is 8.91 µM [rising, partial curve] and the AC50 under setting [1] was 11.2 µM [rising, partial curve].

As to `CN1CCCCCC1=NC1=C(C#N)CCCC1`, the AC50 under setting [1] was 31.6 µM [rising, single point].

In the case of `CCCN1C=CC(=C/C=C(\C#N)C(=O)OCC)C=C1`, the AC50 is 17.8 µM [falling, single point] under setting [2] and 15.8 µM [falling, single point] under setting [1].

On to `CCc1c(-c2n[nH]c(=S)n2Cc2ccccc2)csc1C`, for which the AC50 under setting [2] is 15.8 µM [rising, single point].

In the case of `NS(=O)(=O)c1cc2c(cc1Cl)NC(CSCc1ccccc1)=NS2(=O)=O`, the AC50 under setting [2] was 0.00501 µM [falling, full curve, poor fit].

Broadly, the AC50 is the concentration at which the activity in the assay is half-maximal.

(Values after PubChem BioAssay AID1487 (National Center for Advancing Translational Sciences (NCATS), 2009).)
